This passage reports binding results from paper PMC7861563, “FOXP1 Interacts with MyoD to Repress its Transcription and Myoblast Conversion” (Journal of cellular signaling, 2021).

Results are given in words; binding and its absence hold for the method and conditions named. Binding can be weak; no strength is given. For some of these results: Binding seen in cells or lysates may run through a third protein. For some of these results: Tags and fused reporters may be left off the sequences shown.

The target of assay [1] is MYC-tagged FOXP1, in vitro translated (murine). Nature of the assay: co-IP; MYC-tagged FOXP1 and HA-tagged partners transcribed and translated in rabbit reticulocyte lysates, non-dissociating conditions; Co-IP by FOXP1, immunoblot with anti-HA mAb.
For assay [2], the target named is FOXP1-MyoD complex on the MCK enhancer probe (murine | not stated). Nature of the assay: native gel or EMSA; full-length proteins synthesized in reticulocyte lysates; super-shift of complexes on the 32P-labeled MCK enhancer probe; 4% nondenaturing polyacrylamide gel in 0.25X TBE.

B1: HA-MRF4, in vitro translated (protein, UniProt P15375 1-242)
chain: MMMDLFETGSYFFYLDGENVTLQPLEVAEGSPLYPGSDGTLSPCQDQMPQEAGSDSSGEEHVLAPPGLQPPHCPGQCLIWACKTCKRKSAPTDRRKAATLRERRRLKKINEAFEALKRRTVANPNQRLPKVEILRSAISYIERLQDLLHRLDQQEKMQELGVDPYSYKPKQEILEGADFLRTCSPQWPSVSDHSRGLVITAKEGGANVDASASSSLQRLSSIVDSISSEERKLPSVEEVVEK
For the molecule B1, the binding result in assay [1] was “no binding”.

B2: ID1, in vitro translated (protein, UniProt P20067 1-168)
chain: MKVASGSAAAAAGPSCSLKAGRTAGEVVLGLSEQSVAISRCAGTRLPALLDEQQVNVLLYDMNGCYSRLKELVPTLPQNRKVSKVEILQHVIDYIRDLQLELNSESEVGTTGGRGLPVRAPLSTLNGEISALAAEVRSESEYYIILQWETEATGGGCPPSLLFRRIAI
In the case of B2, the binding entry in assay [2] is reported as “binds”.

B3: HA-MyoG, in vitro translated (protein, UniProt P12979 1-224)
chain: MELYETSPYFYQEPHFYDGENYLPVHLQGFEPPGYERTELSLSPEARGPLEEKGLGTPEHCPGQCLPWACKVCKRKSVSVDRRRAATLREKRRLKKVNEAFEALKRSTLLNPNQRLPKVEILRSAIQYIERLQALLSSLNQEERDLRYRGGGGPQPMVPSECNSHSASCSPEWGNALEFGPNPGDHLLAADPTDAHNLHSLTSIVDSITVEDMSVAFPDETMPN
As to B3, the binding result in assay [1] was “no binding”.

B4: HA-FOXP3, in vitro translated (protein, UniProt Q99JB6 1-429)
chain: MPNPRPAKPMAPSLALGPSPGVLPSWKTAPKGSELLGTRGSGGPFQGRDLRSGAHTSSSLNPLPPSQLQLPTVPLVMVAPSGARLGPSPHLQALLQDRPHFMHQLSTVDAHAQTPVLQVRPLDNPAMISLPPPSAATGVFSLKARPGLPPGINVASLEWVSREPALLCTFPRSGTPRKDSNLLAAPQGSYPLLANGVCKWPGCEKVFEEPEEFLKHCQADHLLDEKGKAQCLLQREVVQSLEQQLELEKEKLGAMQAHLAGKMALAKAPSVASMDKSSCCIVATSTQGSVLPAWSAPREAPDGGLFAVRRHLWGSHGNSSFPEFFHNMDYFKYHNMRPPFTYATLIRWAILEAPERQRTLNEIYHWFTRMFAYFRNHPATWKNAIRHNLSLHKCFVRVESEKGAVWTVDEFEFRKKRSQRPNKCSNPCP
With B4, the binding entry in assay [1] is “binds”.
